# Reference: PubChem BioAssay (EPA / NIEHS)
# By UniProt entry, the sequences of proteins in these tests, tags left out. Where a name states a change or a piece, a line headed by the entry shows the natural chain unless it says otherwise.
# UniProt Q96RI1: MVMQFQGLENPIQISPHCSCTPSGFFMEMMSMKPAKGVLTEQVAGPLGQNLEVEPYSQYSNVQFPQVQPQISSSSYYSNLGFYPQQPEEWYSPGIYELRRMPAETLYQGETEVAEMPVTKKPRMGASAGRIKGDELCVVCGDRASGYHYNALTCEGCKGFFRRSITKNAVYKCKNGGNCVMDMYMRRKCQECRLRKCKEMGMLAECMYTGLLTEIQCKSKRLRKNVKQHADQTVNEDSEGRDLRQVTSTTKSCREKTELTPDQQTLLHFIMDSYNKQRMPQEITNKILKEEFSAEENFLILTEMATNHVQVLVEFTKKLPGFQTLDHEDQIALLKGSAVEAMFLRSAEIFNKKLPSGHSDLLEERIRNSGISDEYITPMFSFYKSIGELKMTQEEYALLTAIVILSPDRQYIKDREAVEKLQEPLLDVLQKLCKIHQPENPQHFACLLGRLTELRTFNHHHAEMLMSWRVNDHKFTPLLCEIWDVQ
# Where “and” joins values, the source holds several entries; their conditions need not be identical. Equal values may be shown once. The inconclusive results got no clear call from the source; some entries with a clear call stand among them for comparison. Potencies beside an inconclusive call are fits to weak or partial responses and may not hold up. The source holds several records for some structures; these can differ, active in one and inactive in another. Calls of active or inactive are those of the source. Rule for the calls: active = hit-call score of the fitted dose curve at least 0.9, where 1 is the maximum; inconclusive = response in the unintended direction; inactive = score below 0.9.
# Target: Bile acid receptor (Homo sapiens) (UniProt Q96RI1)
# Assay: ATG_FXR_TRANS: Attagene TRANS-FACTORIAL HepG2 Assay for Farnesoid X Receptor (FXR) (AID 2282979);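 note: hits raise reporter mRNA above DMSO so AC50 marks FXR activation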
# Settings: HepG2 Attagene TRANS FXR-GAL4 reporter transcription
# Protocol: ATG_TRANS is a cell-based, multiplexed-readout assay that uses HepG2, a human liver cell line, with measurements taken at 24 hours after chemical dosing in a 24-well plate.ATG_FXR_TRANS is one of 30 assay component(s) measured or calculated from the ATG_TRANS assay. It is designed to make measurements of mRNA induction, a form of inducible reporter, as detected with fluorescence intensity signals by Reverse transcription polymerase chain reaction (RT-PCR) and Capillary electrophoresis technology.Data from the assay component ATG_FXR_TRANS was analyzed into 1 assay endpoint. This assay endpoint, ATG_FXR_TRANS, was analyzed in the positive analysis fitting direction relative to DMSO as the negative control and baseline of activity. Using a type of inducible reporter, measures of mRNA for gain-of-signal activity can be used to understand the reporter gene at the transcription factor-level as they relate to the gene NR1H4. Furthermore, this assay endpoint can be referred to as a primary readout, because this assay has produced multiple assay endpoints where this one serves a reporter gene function. To generalize the intended target to other relatable targets, this assay endpoint is annotated to the nuclear receptor intended target family, where the subfamily is non-steroidal.
# Human liver HepG2 cells are transiently transfected with multiple reporter transcription units (MRTUs) in 6-well plates using FuGene 6 reagent (Roche; 3 ml FuGene/1 mg DNA). The MRTU constructs are regulated by a cis-regulating element (promoter). […] A major difference between the CIS and TRANS system is that in CIS activities of endogenous TFs are measured, whereas the TRANS assay evaluates changes in activities of exogenous, chimeric NR-Gal4 proteins. […] At the end of 24 hour incubation, total RNA was isolated using TriZol reagent (Invitrogen). The isolated RNA is then reverse-transcribed using oligo(dT) primer and Mo-MLV reverse transcriptase (Invitrogen) with DNAse I (Ambion) treatment for 30 min. The one-tenth of the produced cDNA was amplified by PCR using Taq DNA polymerase (Invitrogen) and two reporter sequence-specific primers. The PCR products were fluorescently labeled by primer extension with 6-arboxyfluorescein (6-FAM) 5'-labeled reporter sequence-specific primer (2 min at 95 C, 20 s at 68 C and 10 min at 72 C) and these products were digested with 5U of HpaI (New England Biolabs) for 2h at 37 C. The fragments were purified using Qiaquick PCR columns (Qiagen), analyzed on an ABI 3130xL genetic analyzer (Applied Biosystems) with peak positions identified by using a set of X-rhodamine (ROX)-labeled MapMarker1000 molecular weight standards (BioVentures). The raw capillary electrophoresis data was processed using Attagraph software (Attagene).
Compound,AC50,outcome
NC(=S)Nc1ccccc1,inconclusive: 100 µM,
CS/C(C)=N/OC(=O)N(C)SN(C)C(=O)O/N=C(\C)SC,inconclusive: 3.92 µM,
O=C(O)C(F)(F)C(F)(F)C(F)(F)C(F)(F)C(F)(F)C(F)(F)C(F)(F)C(F)(F)F,active: 151 µM and active: 219 µM,inactive
CCOP(=O)(OCC)Oc1cc(C)nc(C(C)C)n1,inconclusive: 50 µM,
COP(=O)(OC)C(O)C(Cl)(Cl)Cl (stereo not given),,inactive
CCOP(=O)(NC(C)C)Oc1ccc(SC)c(C)c1 (stereo not given),,inactive
O=C(Cl)c1ccc(Cl)cc1,,inactive
CN(C)[C@@H]1C(=O)C(C(N)=O)=C(O)[C@@]2(O)C(=O)C3=C(O)c4c(O)cccc4[C@@](C)(O)[C@H]3C[C@@H]12,,inactive
Clc1ccc(C(Cl)(Cl)Cl)cc1,inconclusive: 100 µM,

Compound,AC50,outcome
CCOP(=S)(OCC)SCSc1ccc(Cl)cc1,,inactive
CCCCOC(=O)c1ccccc1C(=O)O,inconclusive: 50 µM,
CS(=O)(=O)NC(=O)c1cc(Oc2ccc(C(F)(F)F)cc2Cl)ccc1[N+](=O)[O-],inconclusive: 25.9 µM,
C=CC(=O)OC,,inactive
COP(=O)(OC)OC,inconclusive: 1.45 µM,
Nc1c(Oc2ccccc2)cc(O)c2c1C(=O)c1ccccc1C2=O,inconclusive: 0.0438 µM,
O=C(CBr)OCc1ccccc1,,inactive
[N-]=[N+]=CC(=O)OC[C@H](N)C(=O)O,inconclusive: 0.0707 µM,
O=NN1CCCC1,inconclusive: 100 µM,
CC(c1ccccc1)(c1ccc(O)cc1)c1ccc(O)cc1,active: 12.5 µM,
O=c1[nH]c2ccccc2n1C1CCN(CCCC(c2ccc(F)cc2)c2ccc(F)cc2)CC1,,inactive
Nc1ccc([N+](=O)[O-])cc1,,inactive
O=C(O)COc1cc(Cl)c(Cl)cc1Cl,inconclusive: 46.9 µM,

# Pulled one by one from above, 2 records:
Compound,AC50,outcome
CS(=O)(=O)NC(=O)c1cc(Oc2ccc(C(F)(F)F)cc2Cl)ccc1[N+](=O)[O-],inconclusive: 25.9 µM,
CCOP(=S)(OCC)SCSc1ccc(Cl)cc1,,inactive
